Values are raw readings; no control value is given beside them.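 Maximum concentrations were near the MIC for antimicrobials, 500 µM for most other compounds, and as high as 1 mM for known inducer-like compounds. Deletion strains began with a tenfold smaller inoculum, and wells with growth under 10% of the overall median counted as non-growing.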
Test system: Escherichia coli BW25113
Experiment: growth (OD600 area under curve, 8 h) (OD600 x h); higher = more growth
Protocol: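 E. coli BW25113 reporter strains (wild type, ΔmarA, ΔsoxS, Δrob, each carrying one of 8 lux reporter plasmids) were grown in 40 µl LB in 384-well plates at 37°C, 800 rpm, with each compound at 4 two-fold concentrations, in biological duplicates. Growth is the baseline-corrected OD600 area under the curve over 8 h (0-8 h WT, 1-9 h deletion strains).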

CN(C)[C@@H]1C(O)=C(C(N)=O)C(=O)[C@@]2(O)C(O)=C3C(=O)c4c(O)cccc4[C@@](C)(O)[C@H]3C[C@@H]12 [Tetracycline]
growth
Conditions	reporter plasmid: EVC	reporter plasmid: acrABp	reporter plasmid: marRABp	reporter plasmid: micFp	reporter plasmid: ompFp	reporter plasmid: robp	reporter plasmid: soxSp	reporter plasmid: tolCp
0.056 µg/ml, genetic background: wild type	2.91	3.35	3.13	2.91	2.92	2.94	2.72	2.69
0.056 µg/ml, genetic background: ΔmarA	2.99	3.81	3.289	3.24	3.1	3.29	2.91	2.91
0.056 µg/ml, genetic background: Δrob	2.93	3.68	3.26	2.88	2.47	2.99	2.789	2.81
0.056 µg/ml, genetic background: ΔsoxS	3.15	3.66	3.44	2.86	3.02	3.443	3.27	3.16
0.11 µg/ml, genetic background: wild type	2.73	3.16	2.96	2.81	2.65	2.72	2.66	2.622
0.11 µg/ml, genetic background: ΔmarA	2.92	3.92	3.42	3.08	2.97	3.39	2.78	2.82
0.11 µg/ml, genetic background: Δrob	2.83	2.957	3.13	2.78	2.47	2.76	2.51	2.72
0.11 µg/ml, genetic background: ΔsoxS	3.115	3.28	2.85	2.76	2.89	3.27	2.95	3
0.22 µg/ml, genetic background: wild type	2.89	3.15	3.095	2.755	2.75	2.96	2.78	2.81
0.22 µg/ml, genetic background: ΔmarA	2.97	4.19	3.28	2.97	3.32	3.67	2.98	2.66
0.22 µg/ml, genetic background: Δrob	2.85	3.02	2.83	2.6	2.16	2.61	2.75	2.62
0.22 µg/ml, genetic background: ΔsoxS	3.23	3.35	3.21	2.79	2.98	3.25	2.954	3.13
0.44 µg/ml, genetic background: wild type	2.01	1.28	1.79	1.66	1.06	1.63	2.1	2.04
0.44 µg/ml, genetic background: ΔmarA	1.63	0.93	1.14	1.77	0.662	1.84	1.84	1.45
0.44 µg/ml, genetic background: Δrob	1.81	0.221	0.971	0.995	0.125	0.215	1.79	1.71
0.44 µg/ml, genetic background: ΔsoxS	2.14	0.477	0.446	1.43	0.247	0.428	1.11	2.28
